Some of the results follow. Part of the spread comes from offsets between plates or batches.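 Hits were defined as a z-score below −3.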

This assay deals with T1, YTHDF1 YTH domain (aa 365-554) (UniProt Q9BYJ9).
T1 sequence (whole entry): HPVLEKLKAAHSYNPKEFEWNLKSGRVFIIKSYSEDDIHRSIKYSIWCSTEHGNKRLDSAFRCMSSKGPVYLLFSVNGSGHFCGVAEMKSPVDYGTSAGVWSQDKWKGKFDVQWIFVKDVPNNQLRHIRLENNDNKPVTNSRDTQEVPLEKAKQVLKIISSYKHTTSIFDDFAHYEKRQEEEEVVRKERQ
In words: tryptophan fluorescence intensity z-score (mean); higher = higher fluorescence, less quenching (negative = binding / quenching). As to conditions: 10 µM.
In the case of `C[N+]12CC[C@@]34c5ccccc5N5C(=O)C[C@@H]6OCC=C(C1)[C@H](C[C@@H]32)[C@@H]6[C@H]54` (some centres not stated) (plate: M 21-22), the “tryptophan fluorescence intensity z-score” value was inactive: 0.506.

`COc1ccc2c(c1OC)C(=O)O[C@@H]2[C@H]1c2cc3c(cc2CCN1C)OCO3` (plate: M 5-6): the “tryptophan fluorescence intensity z-score” value is inactive: -0.414.

`O=C(NC(=O)c1c(F)cccc1F)Nc1ccc(Cl)cc1` (plate: M 23-24): the “tryptophan fluorescence intensity z-score” value is inactive: 0.0223.

As to `C[C@@H]1C[C@@H]([C@H](O)CC2CC(=O)NC(=O)C2)C(=O)[C@@H](C)C1` (plate: M 7-8), the “tryptophan fluorescence intensity z-score” value was inactive: 0.484.

As to `COc1cc2c(cc1OC)[C@@H]1C(=O)c3ccc4c(c3O[C@@H]1CO2)CC(C(C)C)O4` (some centres not stated) (plate: M 15-16), the “tryptophan fluorescence intensity z-score” value was inactive: -0.0203.

In the case of `COc1ccc2c(c1OC)C(=O)O[C@H]2[C@H]1c2cc3c(cc2CCN1C)OCO3` (plate: M 17-18), the “tryptophan fluorescence intensity z-score” value was inactive: 0.426.

With `CC[C@@H](CO)NC(=O)[C@@H]1C=C2c3cccc4[nH]cc(c34)C[C@H]2N(C)C1` (plate: M 3-4), the “tryptophan fluorescence intensity z-score” value was inactive: -0.348.

As for `CCCCOC(=O)c1ccccc1C(=O)OCCCC` (plate: M 1-2), the “tryptophan fluorescence intensity z-score” value is inactive: 0.558.

`C=CCc1cc(OC)c2c(c1OC)OCO2` (plate: M 21-22): the “tryptophan fluorescence intensity z-score” value is inactive: -0.139.

Consider `C[N+]1(C)CCc2cc3c(cc2[C@H]1[C@@H]1OC(=O)c2c1ccc1c2OCO1)OCO3` (plate: M 23-24), for which the “tryptophan fluorescence intensity z-score” value was inactive: 0.0161.

For the compound `CCC(C)C(=O)OC1CC2(C)C(c3ccoc3)OC(=O)CC23OC2(C)OC34C(OC(=O)C(C)C)C3(O)C(OC(=O)C5(C)OC5C)C5(C)CC3(O)C(C)(C5CC(=O)OC)C14O2` (configuration not stated) (plate: M 13-14), the “tryptophan fluorescence intensity z-score” value is inactive: 0.581.

On to `c1cncc([C@@H]2CCCCN2)c1` (plate: M 17-18), for which the “tryptophan fluorescence intensity z-score” value is inactive: 0.121.

For `CC(C)(O)[C@@H]1[C@H]2OC(=O)[C@@H]1[C@]1(O)C[C@H]3O[C@]34C(=O)O[C@H]2[C@]14C` (plate: M 13-14), the “tryptophan fluorescence intensity z-score” value was inactive: 0.263.

With `CC(C)(C#N)O[C@@H]1O[C@H](CO)[C@@H](O)[C@H](O)[C@H]1O` (plate: M 19-20), the “tryptophan fluorescence intensity z-score” value was inactive: 0.486.

`CC(=O)O[C@H]1C(=O)[C@@]2(C)[C@H]([C@H](OC(=O)c3ccccc3)[C@]3(O)C[C@H](O)C(C)=C1C3(C)C)[C@]1(OC(C)=O)CO[C@@H]1C[C@@H]2O` (plate: M 19-20): the “tryptophan fluorescence intensity z-score” value is inactive: 0.0212.

`C=C(C)[C@H]1Cc2c(ccc3c(=O)c4c(oc23)COc2cc(OC)c(OC)cc2-4)O1` (plate: M 15-16): the “tryptophan fluorescence intensity z-score” value is inactive: 0.172.

On to `O=c1[nH]oc2c1CCNC2` (plate: M 23-24), for which the “tryptophan fluorescence intensity z-score” value is inactive: 0.213.

Consider `CC(N)C(O)c1ccccc1` (configuration not stated) (plate: M 5-6), for which the “tryptophan fluorescence intensity z-score” value was inactive: 0.0803.

Take `CC1(C)C(=O)[C@@H]2O[C@@H]2[C@@]2(C)C1C[C@@H](O)[C@]1(C)C2CC[C@@]2(C)[C@H](c3ccoc3)OC(=O)C3OC321` (stereo partly drawn) [1,2alpha-EPOXYDEACETOXYDIHYDROGEDUNIN] (plate: M 13-14): the “tryptophan fluorescence intensity z-score” value was inactive: 0.145.

For the compound `CC1=CCCC2C1(C)CCC(C)C2(C)CC/C(C)=C/Cn1c[n+](C)c2c(N)ncnc21` (configuration not stated) [AGELASINE(stereochemistryofditerpeneunknown)] (plate: M 17-18), the “tryptophan fluorescence intensity z-score” value was inactive: 0.619.

Take `O=C(CCCN1CCC2(CC1)C(=O)NCN2c1ccccc1)c1ccc(F)cc1` (plate: M 7-8): the “tryptophan fluorescence intensity z-score” value was inactive: -0.129.

Consider `O=[N+]([O-])O[C@H]1CO[C@H]2[C@@H]1OC[C@H]2O[N+](=O)[O-]` (plate: M 3-4), for which the “tryptophan fluorescence intensity z-score” value was inactive: -0.175.

`COc1cc2ccc(=O)oc2c2ccoc12` (plate: M 15-16): the “tryptophan fluorescence intensity z-score” value was inactive: 0.125.

For the compound `NCC1(CC(=O)O)CCCCC1` (plate: M 11-12), the “tryptophan fluorescence intensity z-score” value is inactive: 0.588.

With `O=c1cccc2n1C[C@@H]1CNC[C@H]2C1` (plate: M 19-20), the “tryptophan fluorescence intensity z-score” value was inactive: 0.0836.

For the compound `C=CCc1ccc(OC)cc1` (plate: M 21-22), the “tryptophan fluorescence intensity z-score” value is inactive: 0.177.

For the compound `CC[C@@H](C)C(=O)O[C@H]1[C@H](O)[C@H]2[C@@H](CN3C[C@@H](C)CC[C@H]3[C@@]2(C)O)[C@@H]2C[C@]34O[C@]5(O)[C@@H](OC(=O)[C@@](C)(O)CC)CC[C@@]3(C)[C@@H]5[C@@H](OC(C)=O)[C@@H](OC(C)=O)[C@H]4[C@@]21O` (plate: M 17-18), the “tryptophan fluorescence intensity z-score” value is inactive: 0.526.

For the compound `CCOC(=O)c1cncn1[C@H](C)c1ccccc1` (plate: M 11-12), the “tryptophan fluorescence intensity z-score” value is inactive: -0.251.

`N[C@H](CO)Cc1ccccc1` (plate: M 23-24): the “tryptophan fluorescence intensity z-score” value is inactive: 0.405.

Take `Cc1nccc2c1[nH]c1cc(O)ccc12` (plate: M 19-20): the “tryptophan fluorescence intensity z-score” value is inactive: 0.203.

For the compound `CC(C)c1cc2c(c(O)c1O)[C@@]1(C(=O)O)CCCC(C)(C)[C@@H]1CC2` (plate: M 23-24), the “tryptophan fluorescence intensity z-score” value was inactive: 0.0209.

Turning to `O=C(O)CC[N+](=O)[O-]` [BOVINOCIDIN(3-nitropropionicacid)] (plate: M 19-20), the “tryptophan fluorescence intensity z-score” value is inactive: 0.92.

On to `Oc1ccc2c3c1O[C@H]1[C@@H](O)CC[C@@]4(O)[C@@H](C2)N(CC2CCC2)CC[C@]314` (plate: M 7-8), for which the “tryptophan fluorescence intensity z-score” value was inactive: 0.819.

With `C/C=C/c1ccc2c(c1)OCO2` (plate: M 17-18), the “tryptophan fluorescence intensity z-score” value is inactive: 0.737.

Consider `CN1CCc2cc3c(cc2[C@H]1[C@@H]1OC(=O)c2c1ccc1c2OCO1)OCO3` (plate: M 17-18), for which the “tryptophan fluorescence intensity z-score” value was inactive: -0.205.

As for `COc1cc2c(c(OC)c1OC)-c1ccc(OC)c(=O)cc1[C@@H](NC(C)=O)CC2` (plate: M 1-2), the “tryptophan fluorescence intensity z-score” value is inactive: -0.0656.

As for `N#C[C@H](O[C@@H]1O[C@H](CO[C@@H]2O[C@H](CO)[C@@H](O)[C@H](O)[C@H]2O)[C@@H](O)[C@H](O)[C@H]1O)c1ccccc1` (plate: M 19-20), the “tryptophan fluorescence intensity z-score” value is inactive: 0.511.

In the case of `CC[C@@H](CO)NC(=O)[C@@H]1C=C2c3cccc4c3c(cn4C)C[C@H]2N(C)C1` (plate: M 11-12), the “tryptophan fluorescence intensity z-score” value was inactive: -1.17.

With `CC1C=CC=CCCC=CC=CC=CC=CC(OC2OC(C)C(O)C(N)C2O)CC2OC(O)(CC(O)C(O)CCC(O)CC(O)CC(O)CC(=O)OC(C)C(C)C1O)CC(O)C2C(=O)O` (configuration not stated) (plate: M 3-4), the “tryptophan fluorescence intensity z-score” value is inactive: -0.124.

With `C[C@@H]1C[C@H](O)[C@@]2(O)[C@]13CC(=O)OC[C@@]2(C)[C@@](C)(O)C(=O)C3` (plate: M 15-16), the “tryptophan fluorescence intensity z-score” value was inactive: 0.754.

Turning to `CC(=O)O[C@H]1CC[C@@]2(C)[C@H](CC[C@@H]3[C@@H]2CC[C@]2(C)[C@@H](C4=CC(=O)OC4)[C@@H](OC(C)=O)C[C@]32O)C1` (plate: M 13-14), the “tryptophan fluorescence intensity z-score” value is inactive: 0.354.

For the compound `CC[N+]1(C)CCCC(OC(=O)C(O)(c2ccccc2)c2ccccc2)C1` (configuration not stated) (plate: M 21-22), the “tryptophan fluorescence intensity z-score” value is inactive: 0.519.

For the compound `CC1=C2C(=CO[C@H](C)[C@H]2C)C(O)=C(C(=O)O)C1=O` (plate: M 15-16), the “tryptophan fluorescence intensity z-score” value is inactive: 0.361.

For `N#Cc1c(Cl)c(Cl)c(Cl)c(C#N)c1Cl` (plate: M 23-24), the “tryptophan fluorescence intensity z-score” value is inactive: 0.586.

Take `COc1cc2c3cc1Oc1c(OC)c(OC)cc4c1[C@@H](Cc1cccc(c1)Oc1ccc(c(O)c1)C[C@@H]3N(C)CC2)N(C)CC4` (plate: M 17-18): the “tryptophan fluorescence intensity z-score” value is inactive: -0.0885.

In the case of `O=c1ccc2cc(O[C@@H]3O[C@H](CO)[C@@H](O)[C@H](O)[C@H]3O)c(O)cc2o1` (plate: M 17-18), the “tryptophan fluorescence intensity z-score” value was inactive: -0.115.

Consider `NCC(O)c1ccc(O)cc1` (configuration not stated) (plate: M 17-18), for which the “tryptophan fluorescence intensity z-score” value is inactive: 0.558.

In the case of `Cc1ccc(/N=C/N(C)/C=N/c2ccc(C)cc2C)c(C)c1` (plate: M 9-10), the “tryptophan fluorescence intensity z-score” value was inactive: 0.13.

Consider `C[C@]12CC[C@H]3[C@@H](CCC4=CC(=O)CC[C@@]43C)[C@@H]1CC[C@@H]2O` (plate: M 1-2), for which the “tryptophan fluorescence intensity z-score” value was inactive: 0.355.

Turning to `C[C@]12CCC(=O)C[C@@H]1CC[C@@H]1[C@@H]2CC[C@]2(C)C(=O)CC[C@@H]12` [5alpha-ANDROSTAN-3,17-DIONE] (plate: M 15-16), the “tryptophan fluorescence intensity z-score” value is inactive: 0.254.

In the case of `C[C@]12CC[C@H](O)C[C@H]1CC[C@@H]1[C@@H]2CC[C@]2(C)[C@@H](C3=CC(=O)OC3)[C@@H](O)C[C@]12O` (plate: M 21-22), the “tryptophan fluorescence intensity z-score” value was inactive: 0.258.

For `CC(=O)O[C@H]1C[C@@H]2CC[C@@H]3[C@H](CC[C@@]4(C)[C@H]3C[C@H]([N+]3(C)CCCCC3)[C@@H]4OC(C)=O)[C@@]2(C)C[C@@H]1[N+]1(C)CCCCC1` (plate: M 11-12), the “tryptophan fluorescence intensity z-score” value was inactive: -0.515.

For the compound `CCSCC[C@H](N)C(=O)O` (plate: M 23-24), the “tryptophan fluorescence intensity z-score” value was inactive: 0.384.

Turning to `COc1c2c(cc3c1OCO3)CCN(C)C2` (plate: M 17-18), the “tryptophan fluorescence intensity z-score” value is inactive: 0.397.

Regarding `C[C@@H]1C(=O)O[C@H]2[C@H]1CC[C@@]1(C)C=CC(=O)[C@@]3(C)O[C@@]213` [EPOXY(4,5alpha)-4,5-DIHYDROSANTONIN] (plate: M 15-16), the “tryptophan fluorescence intensity z-score” value is inactive: 0.38.

On to `COP(=O)(OC)C(O)C(Cl)(Cl)Cl` (configuration not stated) (plate: M 11-12), for which the “tryptophan fluorescence intensity z-score” value is inactive: -0.624.

For the compound `CNC1CC(N)C(O)C(OC2OC(CO)C(O)C3OC4(OC(C(N)CO)C(O)C(O)C4O)OC23)C1O` (configuration not stated) (plate: M 23-24), the “tryptophan fluorescence intensity z-score” value was inactive: 0.408.

For `C=CCc1ccc2c(c1)OCO2` (plate: M 19-20), the “tryptophan fluorescence intensity z-score” value was inactive: 0.188.

Take `CCCC(C)C1(CC)C(=O)NC(=O)NC1=O` (configuration not stated) (plate: M 13-14): the “tryptophan fluorescence intensity z-score” value was inactive: 0.79.

On to `COP(=O)(OC)OC=C(Cl)Cl` (plate: M 1-2), for which the “tryptophan fluorescence intensity z-score” value was inactive: 0.718.

Take `S=C=NCc1ccccc1` (plate: M 19-20): the “tryptophan fluorescence intensity z-score” value was inactive: 0.159.

Take `C[C@]12CCC(=O)C=C1C=C[C@@H]1[C@@H]2CC[C@@]2(C)[C@H]1CC[C@@]2(O)CCC(=O)O` (plate: M 5-6): the “tryptophan fluorescence intensity z-score” value was inactive: 0.0156.

(Values after the supplement of paper PMC9578143, “Small-Molecule Ebselen Binds to YTHDF Proteins Interfering with the Recognition of N^6-Methyladenosine-Modified RNAs” (ACS Pharmacology & Translational Science, 2022).)
